Experimental data: paper PMC11170814
Results are given in words; binding and its absence hold for the method and conditions named. In cells and extracts the contact can be indirect. Some entries that bind do so weakly or less than the wild type.

The chains behind the UniProt entries cited, without tags or fusion partners. Residues count along the entry.
UniProt P02649, residues 19-317: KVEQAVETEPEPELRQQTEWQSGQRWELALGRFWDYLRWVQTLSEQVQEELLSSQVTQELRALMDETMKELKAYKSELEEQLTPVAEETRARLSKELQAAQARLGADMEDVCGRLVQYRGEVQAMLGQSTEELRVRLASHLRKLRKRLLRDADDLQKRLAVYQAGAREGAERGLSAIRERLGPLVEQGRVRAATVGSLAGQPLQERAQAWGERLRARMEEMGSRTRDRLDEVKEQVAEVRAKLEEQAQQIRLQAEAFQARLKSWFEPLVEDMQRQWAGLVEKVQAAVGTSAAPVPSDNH

Target: human ApoE3 in the cortex of hAPOE3-TR mice (human) (UniProt P02649)
Experiment: co-IP; mouse brain cortex (hAPOE2-TR or hAPOE3-TR mice); rProtein A/G Magnetic IP/Co-IP Kit; 10 ug of APOE antibody or IgG

B1: ERRα of mouse brain cortex (protein, UniProt O08580 1-422)
chain: MSSQVVGIEPLYIKAEPASPDSPKGSSETETEPPVTLASGPAPARCLPGHKEEEDGEGAGSGEQGSGKLVLSSLPKRLCLVCGDVASGYHYGVASCEACKAFFKRTIQGSIEYSCPASNECEITKRRRKACQACRFTKCLRVGMLKEGVRLDRVRGGRQKYKRRPEVDPLPFPGPFPAGPLAVAGGPRKTAPVNALVSHLLVVEPEKLYAMPDPASPDGHLPAVATLCDLFDREIVVTISWAKSIPGFSSLSLSDQMSVLQSVWMEVLVLGVAQRSLPLQDELAFAEDLVLDEEGARAAGLGDLGAALLQLVRRLQALRLEREEYVLLKALALANSDSVHIEDAEAVEQLREALHEALLEYEAGRAGPGGGAERRRAGRLLLTLPLLRQTAGKVLAHFYGVKLEGKVPMHKLFLEMLEAMMD
B1 was tested, and the binding was “binds”.
